Assay results published in patent publication US9023873B2, “Insecticidal 2-methoxybenzamide derivatives” (Syngenta Participations AG, priority 2011, dated 2015).
Some results were stated once for a whole list of compounds, not compound by compound. For some of these results: At least one compound was matched to its structure with a doubt left.

Tests used:
Type in all cases: in vivo
[1] = tested on: Plutella xylostella (Diamond back moth); assay: Plutella xylostella larval test on artificial diet; settings: 200 ppm (concentration in well 18 ppm), L2 larvae, 6 days, larval mortality, growth regulation
[2] = tested on: Diabrotica balteata (Corn root worm); assay: Diabrotica balteata larval test on artificial diet; settings: 200 ppm (concentration in well 18 ppm), L2 larvae, 5 days, larval mortality, growth regulation
[3] = tested on: Spodoptera littoralis (Egyptian cotton leafworm); assay: Spodoptera littoralis cotton leaf disc spray test; settings: 200 ppm spray on cotton leaf discs, L1 larvae, mortality, feeding behavior, growth regulation 3 days after treatment
[4] = tested on: Thrips tabaci (Onion thrips); assay: Thrips tabaci sunflower leaf disc spray test; settings: 200 ppm spray on sunflower leaf discs, population of mixed ages, 7 days; mortality
[5] = tested on: Tetranychus urticae (Two-spotted spider mite); assay: Tetranychus urticae bean leaf disc spray test; settings: 200 ppm spray on bean leaf discs, mite populations of mixed ages, 8 days; egg, larval and adult mortality
[6] = tested on: Heliothis virescens (Tobacco budworm); assay: Heliothis virescens egg test on artificial diet; settings: 200 ppm (concentration in well 18 ppm), eggs 0-24 h old on artificial diet, 4 days; egg mortality, larval mortality, growth regulation
[7] = tested on: Myzus persicae (Green peach aphid); assay: Myzus persicae sunflower leaf disc spray test; settings: 200 ppm spray on sunflower leaf discs, aphid population of mixed ages, 6 DAT; mortality

COc1c(NC(=O)c2cc(Cl)nc(Cl)c2)cccc1C(=O)Nc1c(Cl)cc(C(F)(C(F)(F)F)C(F)(F)C(F)(F)F)cc1Br (stereo not shown) [Compound B1]
at least 80%: control of Plutella xylostella [1] | control of Diabrotica balteata [2] | control of Spodoptera littoralis [3] | control of Thrips tabaci [4] | control of Tetranychus urticae [5] | control of Heliothis virescens [6]

COc1c(NC(=O)c2ccnc(C(F)(F)F)c2Cl)cccc1C(=O)Nc1c(Cl)cc(C(F)(C(F)(F)F)C(F)(F)C(F)(F)F)cc1Br (stereo not shown) [Compound B6]
at least 80%: control of Plutella xylostella [1] | control of Diabrotica balteata [2] | control of Spodoptera littoralis [3] | control of Heliothis virescens [6]

COc1cc(C(=O)Nc2cccc(C(=O)Nc3c(Cl)cc(C(F)(C(F)(F)F)C(F)(F)C(F)(F)F)cc3Br)c2OC)cc(Cl)n1 (stereo not shown) [Compound B7]
at least 80%: control of Plutella xylostella [1] | control of Diabrotica balteata [2] | control of Spodoptera littoralis [3] | control of Heliothis virescens [6]

COc1c(NC(=O)c2ccnc(F)c2)cccc1C(=O)Nc1c(Cl)cc(C(F)(C(F)(F)F)C(F)(F)C(F)(F)F)cc1Br (stereo not shown) [Compound B8]
at least 80%: control of Plutella xylostella [1] | control of Diabrotica balteata [2] | control of Spodoptera littoralis [3] | control of Tetranychus urticae [5] | control of Myzus persicae [7] | control of Heliothis virescens [6]

COc1c(NC(=O)c2ccc(C(F)(F)F)nc2C)cccc1C(=O)Nc1c(Cl)cc(C(F)(C(F)(F)F)C(F)(F)C(F)(F)F)cc1Br (stereo not shown) [Compound B10]
at least 80%: control of Plutella xylostella [1] | control of Diabrotica balteata [2] | control of Spodoptera littoralis [3] | control of Tetranychus urticae [5] | control of Heliothis virescens [6]

COc1c(NC(=O)c2cnccc2C(F)(F)F)cccc1C(=O)Nc1c(Cl)cc(C(F)(C(F)(F)F)C(F)(F)C(F)(F)F)cc1Br (stereo not shown) [Compound B11]
at least 80%: control of Plutella xylostella [1] | control of Diabrotica balteata [2] | control of Spodoptera littoralis [3]

COc1c(NC(=O)c2ccc[n+]([O-])c2)cccc1C(=O)Nc1c(Cl)cc(C(F)(C(F)(F)F)C(F)(F)C(F)(F)F)cc1Br (stereo not shown) [Compound B13]
at least 80%: control of Plutella xylostella [1] | control of Diabrotica balteata [2] | control of Spodoptera littoralis [3] | control of Tetranychus urticae [5] | control of Myzus persicae [7]

COc1c(NC(=O)c2cccnc2)cccc1C(=O)Nc1c(Cl)cc(C(F)(C(F)(F)F)C(F)(F)C(F)(F)F)cc1Br (stereo not shown) [Compound B15]
at least 80%: control of Plutella xylostella [1] | control of Diabrotica balteata [2] | control of Spodoptera littoralis [3] | control of Tetranychus urticae [5] | control of Myzus persicae [7]

COc1c(NC(=O)c2ccncc2)cccc1C(=O)Nc1c(Cl)cc(C(F)(C(F)(F)F)C(F)(F)F)cc1Br [Compound D1, N-[3-[[[2-bromo-6-chloro-4-(1,2,2,2,3,3,3-heptafluoro-propyl)-phenyl]amino]carbonyl]-2-methoxyphenyl]-4-pyridinecarboxamide]
at least 80%: control of Plutella xylostella [1] | control of Diabrotica balteata [2] | control of Spodoptera littoralis [3] | control of Thrips tabaci [4] | control of Myzus persicae [7] | control of Heliothis virescens [6]

COc1c(NC(=O)c2ccnc(Cl)c2)cccc1C(=O)Nc1c(Cl)cc(C(F)(C(F)(F)F)C(F)(F)F)cc1Br [Compound D2, N-[3-[[[2-bromo-6-chloro-4-(1,2,2,2,3,3,3-heptafluoro-propyl)-phenyl]amino]carbonyl]-2-methoxyphenyl]-2-chloro-4-pyridinecarboxamide]
at least 80%: control of Plutella xylostella [1] | control of Diabrotica balteata [2] | control of Spodoptera littoralis [3] | control of Thrips tabaci [4] | control of Heliothis virescens [6]

COc1c(C(=O)Nc2c(Cl)cc(C(F)(C(F)(F)F)C(F)(F)F)cc2Br)cccc1N(CCC(N)=O)C(=O)c1cc[n+]([O-])cc1 [Compound D29]
at least 80%: control of Plutella xylostella [1] | control of Diabrotica balteata [2] | control of Thrips tabaci [4]

COc1c(C(=O)Nc2c(Cl)cc(C(F)(C(F)(F)F)C(F)(F)F)cc2Br)cccc1N(C(=O)c1cncc(Cl)c1)C(C)C [Compound D36]
at least 80%: control of Plutella xylostella [1] | control of Diabrotica balteata [2] | control of Spodoptera littoralis [3] | control of Thrips tabaci [4] | control of Heliothis virescens [6]

COc1c(C(=O)Nc2c(Cl)cc(C(F)(C(F)(F)F)C(F)(F)F)cc2Br)cccc1N(C)C(=O)c1cccnc1Cl [Compound D38]
at least 80%: control of Plutella xylostella [1] | control of Diabrotica balteata [2] | control of Spodoptera littoralis [3] | control of Thrips tabaci [4] | control of Tetranychus urticae [5] | control of Heliothis virescens [6]

CCSc1ncccc1C(=O)N(C)c1cccc(C(=O)Nc2c(Cl)cc(C(F)(C(F)(F)F)C(F)(F)F)cc2Br)c1OC [Compound D39]
at least 80%: control of Heliothis virescens [6]

COc1c(C(=O)Nc2c(Cl)cc(C(F)(C(F)(F)F)C(F)(F)F)cc2Br)cccc1N(C)C(=O)c1cc(Cl)cnc1Cl [Compound D40]
at least 80%: control of Diabrotica balteata [2] | control of Spodoptera littoralis [3] | control of Heliothis virescens [6]

COc1c(C(=O)Nc2c(Cl)cc(C(F)(C(F)(F)F)C(F)(F)F)cc2Br)cccc1N(C)C(=O)c1cccnc1SC [Compound D41]
at least 80%: control of Spodoptera littoralis [3] | control of Heliothis virescens [6]

COc1c(C(=O)Nc2c(Cl)cc(C(F)(C(F)(F)F)C(F)(F)F)cc2Br)cccc1N(C)C(=O)c1ccc(C(F)(F)F)nc1 [Compound D42]
at least 80%: control of Plutella xylostella [1] | control of Spodoptera littoralis [3] | control of Heliothis virescens [6]

COc1c(NC(=O)c2ccc[n+]([O-])c2)cccc1C(=O)Nc1c(C)cc(C(F)(C(F)(F)F)C(F)(F)F)cc1C [Compound E4]
at least 80%: control of Spodoptera littoralis [3] | control of Thrips tabaci [4] | control of Tetranychus urticae [5] | control of Myzus persicae [7] | control of Heliothis virescens [6]

CCc1cc(C(F)(C(F)(F)F)C(F)(F)F)cc(C)c1NC(=O)c1cccc(NC(=O)c2cc[n+]([O-])cc2)c1OC [Compound F3]
at least 80%: control of Diabrotica balteata [2] | control of Thrips tabaci [4] | control of Tetranychus urticae [5] | control of Myzus persicae [7] | control of Heliothis virescens [6]

CCc1cc(C(F)(C(F)(F)F)C(F)(F)F)cc(C)c1NC(=O)c1cccc(NC(=O)c2ccc[n+]([O-])c2)c1OC [Compound F6]
at least 80%: control of Plutella xylostella [1] | control of Thrips tabaci [4] | control of Tetranychus urticae [5] | control of Myzus persicae [7] | control of Heliothis virescens [6]

CNc1ccc(C(=O)N(C)c2cccc(C(=O)Nc3c(Br)cc(C(F)(C(F)(F)F)C(F)(F)F)cc3Br)c2OC)cn1 [Compound G25]
at least 80%: control of Plutella xylostella [1] | control of Diabrotica balteata [2] | control of Spodoptera littoralis [3] | control of Tetranychus urticae [5] | control of Myzus persicae [7] | control of Heliothis virescens [6]

COc1c(NC(=O)c2ccc(N(C)C(=O)OC(C)(C)C)nc2)cccc1C(=O)Nc1c(Br)cc(C(F)(C(F)(F)F)C(F)(F)F)cc1Br [Compound G26]
at least 80%: control of Spodoptera littoralis [3] | control of Heliothis virescens [6]

CNc1ccc(C(=O)Nc2cccc(C(=O)Nc3c(Br)cc(C(F)(C(F)(F)F)C(F)(F)F)cc3Br)c2OC)cn1 [Compound G27]
at least 80%: control of Plutella xylostella [1] | control of Diabrotica balteata [2] | control of Spodoptera littoralis [3] | control of Heliothis virescens [6]

CNc1ccc(C(=O)Nc2cccc(C(=O)Nc3c(Br)cc(C(F)(C(F)(F)F)C(F)(F)F)cc3Br)c2OC)c[n+]1[O-] [Compound G28]
at least 80%: control of Diabrotica balteata [2] | control of Spodoptera littoralis [3] | control of Thrips tabaci [4] | control of Tetranychus urticae [5] | control of Myzus persicae [7] | control of Heliothis virescens [6]

CNc1ccc(C(=O)N(C)c2cccc(C(=O)Nc3c(Br)cc(C(F)(C(F)(F)F)C(F)(F)F)cc3Br)c2OC)c[n+]1[O-] [Compound G29]
at least 80%: control of Spodoptera littoralis [3] | control of Thrips tabaci [4] | control of Heliothis virescens [6]

COc1c(C(=O)Nc2c(Br)cc(C(F)(C(F)(F)F)C(F)(F)F)cc2Br)cccc1N(C)C(=O)c1ccc(N(C)C(=O)OC(C)(C)C)nc1 [Compound G30]
at least 80%: control of Plutella xylostella [1] | control of Spodoptera littoralis [3] | control of Tetranychus urticae [5] | control of Heliothis virescens [6]
